These are yes or no findings as the source states them, for the method shown. In cells and extracts the contact can be indirect. Tags and fused reporters may be left off the sequences shown.
What was measured:
Assay in all cases: co-IP
[1] = target: T1, PTP1B-DA-PafA-Myc (HEK293T) (UniProt P18031)
T1 sequence: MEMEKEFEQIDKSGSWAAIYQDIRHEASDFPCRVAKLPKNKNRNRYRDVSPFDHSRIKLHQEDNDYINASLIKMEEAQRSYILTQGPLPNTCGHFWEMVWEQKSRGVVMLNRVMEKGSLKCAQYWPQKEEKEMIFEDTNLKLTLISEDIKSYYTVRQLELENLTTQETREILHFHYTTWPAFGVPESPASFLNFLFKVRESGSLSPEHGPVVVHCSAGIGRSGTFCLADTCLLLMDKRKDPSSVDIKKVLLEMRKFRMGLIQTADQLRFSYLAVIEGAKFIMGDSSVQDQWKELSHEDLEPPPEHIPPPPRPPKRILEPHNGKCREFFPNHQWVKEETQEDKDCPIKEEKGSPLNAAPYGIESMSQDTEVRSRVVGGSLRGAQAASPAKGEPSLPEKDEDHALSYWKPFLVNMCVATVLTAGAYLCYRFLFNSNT

[2] = target: T2, PTP1B-WT-PafA-Myc (HEK293T) (UniProt P18031)
T2 sequence: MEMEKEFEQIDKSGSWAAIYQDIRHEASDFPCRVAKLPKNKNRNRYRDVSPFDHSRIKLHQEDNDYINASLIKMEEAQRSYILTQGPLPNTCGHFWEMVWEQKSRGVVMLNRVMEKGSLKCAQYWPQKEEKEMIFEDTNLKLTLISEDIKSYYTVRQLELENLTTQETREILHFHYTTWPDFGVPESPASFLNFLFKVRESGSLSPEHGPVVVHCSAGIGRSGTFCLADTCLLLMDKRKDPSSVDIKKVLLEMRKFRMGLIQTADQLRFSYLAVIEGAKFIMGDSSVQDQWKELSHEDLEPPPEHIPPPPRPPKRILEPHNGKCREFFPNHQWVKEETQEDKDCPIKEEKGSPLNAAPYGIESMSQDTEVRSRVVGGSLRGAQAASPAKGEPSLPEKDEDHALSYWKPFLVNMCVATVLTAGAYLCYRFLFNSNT

PTP1B-DA = target: T3, PTP1B-DA (UniProt P18031)
T3 sequence: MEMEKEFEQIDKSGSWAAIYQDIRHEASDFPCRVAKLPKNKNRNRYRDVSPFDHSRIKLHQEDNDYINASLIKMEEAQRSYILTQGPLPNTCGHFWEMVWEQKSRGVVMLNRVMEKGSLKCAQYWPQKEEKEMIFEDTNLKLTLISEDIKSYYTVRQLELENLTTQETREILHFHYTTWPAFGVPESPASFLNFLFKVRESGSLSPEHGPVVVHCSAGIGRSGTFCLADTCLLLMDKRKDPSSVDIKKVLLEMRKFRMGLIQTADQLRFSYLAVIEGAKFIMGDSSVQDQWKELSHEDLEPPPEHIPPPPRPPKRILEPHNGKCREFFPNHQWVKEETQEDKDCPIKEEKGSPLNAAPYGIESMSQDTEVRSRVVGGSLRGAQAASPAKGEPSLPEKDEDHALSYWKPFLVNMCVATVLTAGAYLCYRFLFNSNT

Measured: binding

B1: THEMIS-WT-FLAG (protein, UniProt Q8N1K5 1-641)
chain: MALSLEEFVHSLDLRTLPRVLEIQAGIYLEGSIYEMFGNECCFSTGEVIKITGLKVKKIIAEICEQIEGCESLQPFELPMNFPGLFKIVADKTPYLTMEEITRTIHIGPSRLGHPCFYHQKDIKLENLIIKQGEQIMLNSVEEIDGEIMVSCAVARNHQTHSFNLPLSQEGEFYECEDERIYTLKEIVEWKIPKNRTRTVNLTDFSNKWDSTNPFPKDFYGTLILKPVYEIQGVMKFRKDIIRILPSLDVEVKDITDSYDANWFLQLLSTEDLFEMTSKEFPIVTEVIEAPEGNHLPQSILQPGKTIVIHKKYQASRILASEIRSNFPKRHFLIPTSYKGKFKRRPREFPTAYDLEIAKSEKEPLHVVATKAFHSPHDKLSSVSVGDQFLVHQSETTEVLCEGIKKVVNVLACEKILKKSYEAALLPLYMEGGFVEVIHDKKQYPISELCKQFRLPFNVKVSVRDLSIEEDVLAATPGLQLEEDITDSYLLISDFANPTECWEIPVGRLNMTVQLVSNFSRDAEPFLVRTLVEEITEEQYYMMRRYESSASHPPPRPPKHPSVEETKLTLLTLAEERTVDLPKSPKRHHVDITKKLHPNQAGLDSKVLIGSQNDLVDEEKERSNRGATAIAETFKNEKHQK
no binding: all assays above
